{
  "source": "paper PMC5015840",
  "key": {"[1]": {"biological_target": "T1, Rice dwarf virus (RDV) P2 protein, yeast two-hybrid fusion (Rice dwarf virus) (UniProt Q18MZ3)", "T1 sequence": "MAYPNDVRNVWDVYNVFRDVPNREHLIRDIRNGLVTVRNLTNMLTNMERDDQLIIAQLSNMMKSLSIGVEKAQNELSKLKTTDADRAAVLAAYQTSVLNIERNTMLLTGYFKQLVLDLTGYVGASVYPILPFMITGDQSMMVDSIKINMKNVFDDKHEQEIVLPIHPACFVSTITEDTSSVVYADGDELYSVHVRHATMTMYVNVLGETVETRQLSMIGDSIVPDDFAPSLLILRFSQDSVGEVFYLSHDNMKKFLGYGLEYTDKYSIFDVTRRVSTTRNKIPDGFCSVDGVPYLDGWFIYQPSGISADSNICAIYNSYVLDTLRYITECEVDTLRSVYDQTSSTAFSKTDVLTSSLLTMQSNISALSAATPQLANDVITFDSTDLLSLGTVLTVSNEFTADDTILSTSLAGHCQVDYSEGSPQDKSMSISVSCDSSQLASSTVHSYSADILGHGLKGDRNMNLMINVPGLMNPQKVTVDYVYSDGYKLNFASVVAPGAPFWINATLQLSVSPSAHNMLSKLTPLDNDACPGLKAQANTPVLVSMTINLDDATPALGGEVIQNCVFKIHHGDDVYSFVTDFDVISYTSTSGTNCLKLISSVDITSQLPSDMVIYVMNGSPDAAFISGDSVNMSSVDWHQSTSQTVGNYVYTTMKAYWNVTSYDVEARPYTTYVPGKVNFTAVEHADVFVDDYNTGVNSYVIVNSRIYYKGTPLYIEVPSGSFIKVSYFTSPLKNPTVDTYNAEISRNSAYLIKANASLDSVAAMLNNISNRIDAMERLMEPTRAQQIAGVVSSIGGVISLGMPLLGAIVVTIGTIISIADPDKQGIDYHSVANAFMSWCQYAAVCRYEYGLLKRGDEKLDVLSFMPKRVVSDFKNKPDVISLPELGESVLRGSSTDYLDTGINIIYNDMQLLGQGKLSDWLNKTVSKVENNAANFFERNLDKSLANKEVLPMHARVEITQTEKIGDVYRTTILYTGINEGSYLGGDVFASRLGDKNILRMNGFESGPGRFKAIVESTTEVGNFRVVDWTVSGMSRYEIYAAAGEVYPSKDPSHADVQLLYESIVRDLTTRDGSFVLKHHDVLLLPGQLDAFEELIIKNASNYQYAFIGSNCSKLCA", "test": "two-hybrid; yeast AH109 co-transformed with bait and prey; growth on SD-Leu/-Trp/-His/-Ade"}, "[2]": {"biological_target": "T1, Rice dwarf virus (RDV) P2 protein, yeast two-hybrid fusion (Rice dwarf virus)", "test": "two-hybrid; yeast; selection medium SD-L-W-H-Ade with or without 50 μM IAA (S2C, S3, S6B Figs; the medium of S2D Fig is not told)"}, "MBP-OsIAA10 (rice)": {"biological_target": "MBP-OsIAA10 (rice)", "test": "pull-down; the same competition pull-down as a7, for the blocker MBP-P2 (1–786) and MBP-OsIAA10 (both purified from E. coli); both purified"}, "[3]": {"biological_target": "OsIAA10 of the MST assays (rice)", "test": "MST; as a10 with 2.5 μM MBP-P2 (1–786) added; both purified"}, "GST-OsIAA10 (rice)": {"biological_target": "GST-OsIAA10 (rice)", "test": "pull-down; competitive pull-down: 3 μg GST-OsIAA10 with 0, 3, 6 or 12 μg GST-P2(1–786) or 6 μg GST, incubated with immobilized MBP-OsTIR1 (6 μg), 4°C, 1 h; detected with anti-GST; both purified"}, "[4]": {"biological_target": "FLAG-OsIAA10 overexpressed in transgenic rice (rice)", "test": "co-IP; RDV-infected FLAG-OsIAA10 overexpressing transgenic rice; IP buffer 50 mM Tris-HCl pH7.5, 150 mM NaCl, 0.1% NP-40, 5 mM DTT, 50 μM MG132, 4°C"}, "[5]": {"biological_target": "FLAG-OsIAA10 transiently expressed in N. benthamiana (rice)", "test": "co-IP; FLAG-OsIAA10 and HA-P2 transiently overexpressed in N. benthamiana leaves; IP buffer 50 mM Tris-HCl pH7.5, 150 mM NaCl, 0.1% NP-40, 5 mM DTT, 50 μM MG132, 4°C"}},
  "note": "No constants are given. Whether binding was seen depends on the method and setting. A result given as binding can be weak or reduced; the word gives no strength. For some assays here: Tags and fused reporters may be left off the sequences shown. For some assays here: In cells and extracts the contact can be indirect.",
  "data": [
    {"molecule": "OsIAA10 domain II (aa 91–141), yeast two-hybrid fusion (rice) (domain or fragment)", "values": [
      {"measurement": "binding", "setting": "[1]", "value": "binds"}
    ]},
    {"molecule": "OsIAA10P116L, yeast two-hybrid fusion (rice)", "values": [
      {"measurement": "binding", "setting": "[2]", "value": "binds"}
    ]},
    {"molecule": "OsIAA1 (rice)", "values": [
      {"measurement": "binding", "setting": "[1]", "value": "no binding"}
    ]},
    {"molecule": "MBP-P2 (1–786) (domain or fragment, UniProt Q18MZ3 1-786) MAYPNDVRNVWDVYNVFRDVPNREHLIRDIRNGLVTVRNLTNMLTNMERDDQLIIAQLSNMMKSLSIGVEKAQNELSKLKTTDADRAAVLAAYQTSVLNIERNTMLLTGYFKQLVLDLTGYVGASVYPILPFMITGDQSMMVDSIKINMKNVFDDKHEQEIVLPIHPACFVSTITEDTSSVVYADGDELYSVHVRHATMTMYVNVLGETVETRQLSMIGDSIVPDDFAPSLLILRFSQDSVGEVFYLSHDNMKKFLGYGLEYTDKYSIFDVTRRVSTTRNKIPDGFCSVDGVPYLDGWFIYQPSGISADSNICAIYNSYVLDTLRYITECEVDTLRSVYDQTSSTAFSKTDVLTSSLLTMQSNISALSAATPQLANDVITFDSTDLLSLGTVLTVSNEFTADDTILSTSLAGHCQVDYSEGSPQDKSMSISVSCDSSQLASSTVHSYSADILGHGLKGDRNMNLMINVPGLMNPQKVTVDYVYSDGYKLNFASVVAPGAPFWINATLQLSVSPSAHNMLSKLTPLDNDACPGLKAQANTPVLVSMTINLDDATPALGGEVIQNCVFKIHHGDDVYSFVTDFDVISYTSTSGTNCLKLISSVDITSQLPSDMVIYVMNGSPDAAFISGDSVNMSSVDWHQSTSQTVGNYVYTTMKAYWNVTSYDVEARPYTTYVPGKVNFTAVEHADVFVDDYNTGVNSYVIVNSRIYYKGTPLYIEVPSGSFIKVSYFTSPLKNPTVDTYNAEISRNSAYLIKANASLDSVAAMLNNISNRIDAMERLMEPTRAQQ", "values": [
      {"measurement": "binding", "setting": "MBP-OsIAA10 (rice)", "value": "binds"},
      {"measurement": "binding", "setting": "[3]", "value": "binds"}
    ]},
    {"molecule": "GST-P2 (1–786) (domain or fragment, UniProt Q18MZ3 1-786) MAYPNDVRNVWDVYNVFRDVPNREHLIRDIRNGLVTVRNLTNMLTNMERDDQLIIAQLSNMMKSLSIGVEKAQNELSKLKTTDADRAAVLAAYQTSVLNIERNTMLLTGYFKQLVLDLTGYVGASVYPILPFMITGDQSMMVDSIKINMKNVFDDKHEQEIVLPIHPACFVSTITEDTSSVVYADGDELYSVHVRHATMTMYVNVLGETVETRQLSMIGDSIVPDDFAPSLLILRFSQDSVGEVFYLSHDNMKKFLGYGLEYTDKYSIFDVTRRVSTTRNKIPDGFCSVDGVPYLDGWFIYQPSGISADSNICAIYNSYVLDTLRYITECEVDTLRSVYDQTSSTAFSKTDVLTSSLLTMQSNISALSAATPQLANDVITFDSTDLLSLGTVLTVSNEFTADDTILSTSLAGHCQVDYSEGSPQDKSMSISVSCDSSQLASSTVHSYSADILGHGLKGDRNMNLMINVPGLMNPQKVTVDYVYSDGYKLNFASVVAPGAPFWINATLQLSVSPSAHNMLSKLTPLDNDACPGLKAQANTPVLVSMTINLDDATPALGGEVIQNCVFKIHHGDDVYSFVTDFDVISYTSTSGTNCLKLISSVDITSQLPSDMVIYVMNGSPDAAFISGDSVNMSSVDWHQSTSQTVGNYVYTTMKAYWNVTSYDVEARPYTTYVPGKVNFTAVEHADVFVDDYNTGVNSYVIVNSRIYYKGTPLYIEVPSGSFIKVSYFTSPLKNPTVDTYNAEISRNSAYLIKANASLDSVAAMLNNISNRIDAMERLMEPTRAQQ", "values": [
      {"measurement": "binding", "setting": "GST-OsIAA10 (rice)", "value": "binds"}
    ]},
    {"molecule": "RDV P2 in RDV-infected rice plants (protein, UniProt Q18MZ3 1-1116) MAYPNDVRNVWDVYNVFRDVPNREHLIRDIRNGLVTVRNLTNMLTNMERDDQLIIAQLSNMMKSLSIGVEKAQNELSKLKTTDADRAAVLAAYQTSVLNIERNTMLLTGYFKQLVLDLTGYVGASVYPILPFMITGDQSMMVDSIKINMKNVFDDKHEQEIVLPIHPACFVSTITEDTSSVVYADGDELYSVHVRHATMTMYVNVLGETVETRQLSMIGDSIVPDDFAPSLLILRFSQDSVGEVFYLSHDNMKKFLGYGLEYTDKYSIFDVTRRVSTTRNKIPDGFCSVDGVPYLDGWFIYQPSGISADSNICAIYNSYVLDTLRYITECEVDTLRSVYDQTSSTAFSKTDVLTSSLLTMQSNISALSAATPQLANDVITFDSTDLLSLGTVLTVSNEFTADDTILSTSLAGHCQVDYSEGSPQDKSMSISVSCDSSQLASSTVHSYSADILGHGLKGDRNMNLMINVPGLMNPQKVTVDYVYSDGYKLNFASVVAPGAPFWINATLQLSVSPSAHNMLSKLTPLDNDACPGLKAQANTPVLVSMTINLDDATPALGGEVIQNCVFKIHHGDDVYSFVTDFDVISYTSTSGTNCLKLISSVDITSQLPSDMVIYVMNGSPDAAFISGDSVNMSSVDWHQSTSQTVGNYVYTTMKAYWNVTSYDVEARPYTTYVPGKVNFTAVEHADVFVDDYNTGVNSYVIVNSRIYYKGTPLYIEVPSGSFIKVSYFTSPLKNPTVDTYNAEISRNSAYLIKANASLDSVAAMLNNISNRIDAMERLMEPTRAQQIAGVVSSIGGVISLGMPLLGAIVVTIGTIISIADPDKQGIDYHSVANAFMSWCQYAAVCRYEYGLLKRGDEKLDVLSFMPKRVVSDFKNKPDVISLPELGESVLRGSSTDYLDTGINIIYNDMQLLGQGKLSDWLNKTVSKVENNAANFFERNLDKSLANKEVLPMHARVEITQTEKIGDVYRTTILYTGINEGSYLGGDVFASRLGDKNILRMNGFESGPGRFKAIVESTTEVGNFRVVDWTVSGMSRYEIYAAAGEVYPSKDPSHADVQLLYESIVRDLTTRDGSFVLKHHDVLLLPGQLDAFEELIIKNASNYQYAFIGSNCSKLCA", "values": [
      {"measurement": "binding", "setting": "[4]", "value": "binds"}
    ]},
    {"molecule": "HA-P2 transiently expressed in N. benthamiana (protein, UniProt Q18MZ3 1-1116) MAYPNDVRNVWDVYNVFRDVPNREHLIRDIRNGLVTVRNLTNMLTNMERDDQLIIAQLSNMMKSLSIGVEKAQNELSKLKTTDADRAAVLAAYQTSVLNIERNTMLLTGYFKQLVLDLTGYVGASVYPILPFMITGDQSMMVDSIKINMKNVFDDKHEQEIVLPIHPACFVSTITEDTSSVVYADGDELYSVHVRHATMTMYVNVLGETVETRQLSMIGDSIVPDDFAPSLLILRFSQDSVGEVFYLSHDNMKKFLGYGLEYTDKYSIFDVTRRVSTTRNKIPDGFCSVDGVPYLDGWFIYQPSGISADSNICAIYNSYVLDTLRYITECEVDTLRSVYDQTSSTAFSKTDVLTSSLLTMQSNISALSAATPQLANDVITFDSTDLLSLGTVLTVSNEFTADDTILSTSLAGHCQVDYSEGSPQDKSMSISVSCDSSQLASSTVHSYSADILGHGLKGDRNMNLMINVPGLMNPQKVTVDYVYSDGYKLNFASVVAPGAPFWINATLQLSVSPSAHNMLSKLTPLDNDACPGLKAQANTPVLVSMTINLDDATPALGGEVIQNCVFKIHHGDDVYSFVTDFDVISYTSTSGTNCLKLISSVDITSQLPSDMVIYVMNGSPDAAFISGDSVNMSSVDWHQSTSQTVGNYVYTTMKAYWNVTSYDVEARPYTTYVPGKVNFTAVEHADVFVDDYNTGVNSYVIVNSRIYYKGTPLYIEVPSGSFIKVSYFTSPLKNPTVDTYNAEISRNSAYLIKANASLDSVAAMLNNISNRIDAMERLMEPTRAQQIAGVVSSIGGVISLGMPLLGAIVVTIGTIISIADPDKQGIDYHSVANAFMSWCQYAAVCRYEYGLLKRGDEKLDVLSFMPKRVVSDFKNKPDVISLPELGESVLRGSSTDYLDTGINIIYNDMQLLGQGKLSDWLNKTVSKVENNAANFFERNLDKSLANKEVLPMHARVEITQTEKIGDVYRTTILYTGINEGSYLGGDVFASRLGDKNILRMNGFESGPGRFKAIVESTTEVGNFRVVDWTVSGMSRYEIYAAAGEVYPSKDPSHADVQLLYESIVRDLTTRDGSFVLKHHDVLLLPGQLDAFEELIIKNASNYQYAFIGSNCSKLCA", "values": [
      {"measurement": "binding", "setting": "[5]", "value": "binds"}
    ]}
  ]
}
